{"sequences": {"note": "Sequences of proteins named here, by UniProt entry; tags and fusion partners are left off. A change or cut given only in a name is not applied to a line headed by its entry.", "UniProt Q9UNA4": "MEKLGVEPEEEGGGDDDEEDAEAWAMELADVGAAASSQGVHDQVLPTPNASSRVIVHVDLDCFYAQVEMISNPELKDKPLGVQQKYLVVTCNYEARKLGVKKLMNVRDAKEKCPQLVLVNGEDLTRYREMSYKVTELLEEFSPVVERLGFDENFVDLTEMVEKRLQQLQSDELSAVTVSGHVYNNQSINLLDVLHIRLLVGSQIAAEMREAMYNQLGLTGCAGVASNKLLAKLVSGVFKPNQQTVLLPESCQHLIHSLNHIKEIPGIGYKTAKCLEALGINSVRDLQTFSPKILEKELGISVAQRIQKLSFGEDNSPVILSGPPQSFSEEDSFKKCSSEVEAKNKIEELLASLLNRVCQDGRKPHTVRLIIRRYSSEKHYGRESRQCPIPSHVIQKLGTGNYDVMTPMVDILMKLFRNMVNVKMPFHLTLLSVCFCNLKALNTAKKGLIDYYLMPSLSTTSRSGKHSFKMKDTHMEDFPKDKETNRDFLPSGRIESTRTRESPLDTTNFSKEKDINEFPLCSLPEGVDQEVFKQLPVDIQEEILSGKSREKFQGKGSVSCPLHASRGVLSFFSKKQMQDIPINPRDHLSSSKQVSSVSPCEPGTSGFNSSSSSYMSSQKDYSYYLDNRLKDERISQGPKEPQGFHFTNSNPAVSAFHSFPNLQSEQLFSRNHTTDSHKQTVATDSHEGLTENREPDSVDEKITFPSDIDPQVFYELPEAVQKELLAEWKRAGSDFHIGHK"}, "source": "PubChem BioAssay AID588590", "about": "(National Center for Advancing Translational Sciences (NCATS), 2011)", "note": "Hit rate of the full screen: of about 390,000 compounds, about 4,000 (1%) were called active. Inconclusive means that the source gave no clear call. Such entries were picked first, then a sample of the others. Calls follow the shape of the dose curve; as a rule, active = well fitted inhibition curve with a large enough effect; inconclusive = small, poorly fitted or top-dose-only effect, or another doubt; inactive = no such curve, though single readings can be large or run the other way. A potency beside an inconclusive call is a rough fit, not a confirmed value. Potency is read from the fitted curve at half-maximal effect.", "data": [{"target": "DNA polymerase iota (Homo sapiens) (UniProt Q9UNA4)", "assay": "qHTS for Inhibitors of Polymerase Iota", "settings": "Pol iota fluorescent replication assay, 10 min; series mostly up to 115 µM", "method_in_brief": "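Pol iota at 10 nM preincubated 15 min with compounds at room temperature; reaction started with fluorescent substrate, 50 nM final. Fluorescence read kinetically at 0 and 10 min; buffer-only wells as negative control.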", "values": [{"smiles": "Cc1cc(O)c(C(C)C)cc1N=Cc1ccc(N(C)C)cc1", "Potency": "inconclusive: 10 µM [inhibitor, partial curve, poor fit]"}, {"smiles": "COc1cc(C(c2c(C)[nH][nH]c2=O)c2c(C)[nH][nH]c2=O)ccc1OCc1ccc([N+](=O)[O-])cc1", "Potency": "inconclusive: 3.16 µM [inhibitor, full curve, poor fit]"}, {"smiles": "Cc1ccc(CSc2nnc(SCC(=O)N/N=C/c3c(C)nn(-c4ccccc4)c3C)s2)cc1", "Potency": "inconclusive: 89.1 µM [inhibitor, single point]"}, {"smiles": "COc1cc(OC)cc(-c2sc3ccc(OC)cc3c2C#CC(C)(C)O)c1", "Potency": "inconclusive: 39.8 µM [inhibitor, single point]"}, {"smiles": "Cc1ccc(NC(=O)CN2C(=O)S/C(=C\\c3cccn3-c3cccc(C(=O)O)c3)C2=O)c(C)c1", "Potency": "inconclusive: 0.794 µM [inhibitor, full curve, poor fit]"}, {"smiles": "Cc1sc2ncn(CC(=O)N3CCC(C(N)=O)CC3)c(=O)c2c1S(=O)(=O)N1CC(C)CC(C)C1", "note": "(stereo unspecified)", "Potency": "inconclusive: 100 µM [inhibitor, partial curve, poor fit]"}, {"smiles": "CCc1noc(C)c1C(=O)Nc1cc(S(=O)(=O)N2CCOCC2)ccc1N1CCN(CC)CC1", "Potency": "inactive"}, {"smiles": "COc1ccc(OC)c(/C=C/C(=O)c2ccc3c(c2)OCO3)c1", "Potency": "inconclusive: 35.5 µM [inhibitor, single point]"}, {"smiles": "C#CCOc1c(Br)cc(/C=N/O)cc1OCC", "Potency": "inconclusive: 1.12 µM [inhibitor, full curve, poor fit]"}, {"smiles": "CC(C)C(=O)N1CCC2(CC1)Oc1ccc(F)cc1C(=O)C21CC(c2ccc(Cl)cc2)=NO1", "note": "(stereo unspecified)", "Potency": "inconclusive: 31.6 µM [inhibitor, single point]"}, {"smiles": "O=C(CN1C(=O)COc2ccc(S(=O)(=O)NC3CCCC3)cc21)Nc1ccc(Cl)cc1F", "Potency": "inactive"}, {"smiles": "COc1cccc2cc(-c3cc(=O)oc4cc(C)c(O)cc34)oc12", "Potency": "inconclusive: 15.8 µM [inhibitor, full curve]"}, {"smiles": "COc1ccc(S(=O)(=O)N2CCCN(Cc3cccc(F)c3)CC2)cc1", "Potency": "inactive"}, {"smiles": "CCCn1c(=O)c2[nH]c(-c3ccc(OCC(=O)Nc4ccc(C#N)cc4)cc3)nc2n(CCC)c1=O", "Potency": "inconclusive: 100 µM [inhibitor, single point]"}, {"smiles": "CC(=O)Nc1ccc(OCCOc2ccc(/C=C3/C(=N)N4C=CSC4=NC3=O)cc2)cc1", "Potency": "inconclusive: 39.8 µM [inhibitor, partial curve, poor fit]"}, {"smiles": "COc1ccc(OC)c(/C=N/c2c(-c3ccc(O)c(OC)c3)nc3ccccn23)c1", "Potency": "inconclusive: 79.4 µM [inhibitor, single point]"}]}]}
